According to the supplement of paper PMC4604168 (melanoma cell lines):
This is one part of the list. Single values are uncertain, as repeats are few or missing.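 The apoptosis fraction was the count of cleaved-PARP antibody-stained nuclei relative to all DNA-stained nuclei, imaged in 1,536-well plates. Screening doses were set so most cells survived, and baseline and induced cleaved-PARP levels vary greatly across cell lines.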

system: RVH-421; assay: cleaved PARP positive nuclei fraction relative to DMSO control; melanoma cells; higher = more apoptosis; conditions: library dose: low library concentration; 72 h

SMILES | cleaved PARP positive nuclei fraction [%]
O=C(Nc1cc(C(F)(F)F)cc(C(F)(F)F)c1)c1cc(Cl)ccc1O + Cn1cnc2c(F)c(Nc3ccc(Br)cc3Cl)c(C(=O)NOCCO)cc21 [selumetinib] (first compound 0.016 µM, partner dose 0.015 µM) | 171
Cc1ccc(Nc2nccc(N(C)c3ccc4c(C)n(C)nc4c3)n2)cc1S(N)(=O)=O [Pazopanib] + CC(=O)c1c(C)c2cnc(Nc3ccc(N4CCNCC4)cn3)nc2n(C2CCCC2)c1=O [palbociclib] (first compound 0.4 µM, partner dose 0.04 µM) | 93.8
CC[C@]1(O)C[C@H]2CN(CCc3c([nH]c4ccccc34)[C@@](C(=O)OC)(c3cc4c(cc3OC)N(C=O)[C@H]3[C@@](O)(C(=O)OC)[C@H](OC(C)=O)[C@]5(CC)C=CCN6CC[C@]43[C@@H]65)C2)C1 [vincristine] + C#Cc1cccc(Nc2ncnc3cc(OCCOC)c(OCCOC)cc23)c1 [erlotinib] (first compound 0.0001 µM, partner dose 0.8 µM) | 42.8
N#CC[C@H](C1CCCC1)n1cc(-c2ncnc3[nH]ccc23)cn1 [ruxolitinib] + O=C(O)[C@@H]1[O][Sb](=[O])([O][Sb]2(=[O])[O][C@H]([C@H](O)CO)[C@H](O)[C@H](C(=O)O)[O]2)[O][C@H]([C@H](O)CO)[C@@H]1O [stibogluconate] (first compound 1 µM, partner dose 2 µM) | 44.7
Cc1cn(-c2cc(NC(=O)c3ccc(C)c(Nc4nccc(-c5cccnc5)n4)c3)cc(C(F)(F)F)c2)cn1 [nilotinib] + CC(=O)O[C@@]12CO[C@@H]1C[C@H](O)[C@@]1(C)C(=O)[C@H](O)C3=C(C)[C@@H](OC(=O)[C@H](O)[C@@H](NC(=O)OC(C)(C)C)c4ccccc4)C[C@@](O)([C@@H](OC(=O)c4ccccc4)[C@H]21)C3(C)C [Docetaxel] (first compound 0.2 µM, partner dose 0.0001 µM) | 122
COc1cc([C@@H]2c3cc4c(cc3[C@@H](O[C@@H]3O[C@@H]5CO[C@@H](C)O[C@H]5[C@H](O)[C@H]3O)[C@H]3COC(=O)[C@H]23)OCO4)cc(OC)c1O [etoposide] + Cc1nc(Nc2ncc(C(=O)Nc3c(C)cccc3Cl)s2)cc(N2CCN(CCO)CC2)n1 [dasatanib] (first compound 0.02 µM, partner dose 0.004 µM) | 283
CC[C@]1(O)C[C@H]2CN(CCc3c([nH]c4ccccc34)[C@@](C(=O)OC)(c3cc4c(cc3OC)N(C=O)[C@H]3[C@@](O)(C(=O)OC)[C@H](OC(C)=O)[C@]5(CC)C=CCN6CC[C@]43[C@@H]65)C2)C1 [vincristine] + Cc1ccc(Nc2nccc(N(C)c3ccc4c(C)n(C)nc4c3)n2)cc1S(N)(=O)=O [Pazopanib] (first compound 0.0001 µM, partner dose 0.4 µM) | 398
O=C(/C=C/c1cccnc1)NCCCCC1CCN(C(=O)c2ccccc2)CC1 + Cn1c(=O)n(-c2ccc(C(C)(C)C#N)cc2)c2c3cc(-c4cnc5ccccc5c4)ccc3ncc21 [NVP-BEZ235] (first compound 0.01 µM, partner dose 0.004 µM) | 296
O=C(/C=C/c1cccnc1)NCCCCC1CCN(C(=O)c2ccccc2)CC1 + Cc1cn(-c2cc(NC(=O)c3ccc(C)c(Nc4nccc(-c5cccnc5)n4)c3)cc(C(F)(F)F)c2)cn1 [nilotinib] (first compound 0.01 µM, partner dose 0.2 µM) | 128
O=C(/C=C/c1cccnc1)NCCCCC1CCN(C(=O)c2ccccc2)CC1 + COCC[n+]1c2c(n(Cc3cnccn3)c1C)C(=O)c1ccccc1C2=O [YM155] (first compound 0.01 µM, partner dose 0.0004 µM) | 41.6
COc1cc([C@@H]2c3cc4c(cc3[C@@H](O[C@@H]3O[C@@H]5CO[C@@H](C)O[C@H]5[C@H](O)[C@H]3O)[C@H]3COC(=O)[C@H]23)OCO4)cc(OC)c1O [etoposide] + O=c1[nH]nc(Sc2ncc([N+](=O)[O-])s2)n1-c1ccc2c(c1)OCCO2 [BI78D3] (first compound 0.02 µM, partner dose 0.2 µM) | 45.7
Cc1cc(Nc2cc(N3CCN(C)CC3)nc(Sc3ccc(NC(=O)C4CC4)cc3)n2)n[nH]1 [Tozasertib] + C[C@@H](Oc1cc(-c2cnn(C3CCNCC3)c2)cnc1N)c1c(Cl)ccc(F)c1Cl [Crizotinib] (first compound 0.006 µM, partner dose 0.2 µM) | 118
O=C(Nc1cc(C(F)(F)F)cc(C(F)(F)F)c1)c1cc(Cl)ccc1O + COCC[n+]1c2c(n(Cc3cnccn3)c1C)C(=O)c1ccccc1C2=O [YM155] (first compound 0.016 µM, partner dose 0.0004 µM) | 168
O=c1[nH]nc(Sc2ncc([N+](=O)[O-])s2)n1-c1ccc2c(c1)OCCO2 + CCCCCCCCc1ccc(CCC(N)(CO)CO)cc1 [fingolimod] (first compound 0.2 µM, partner dose 2 µM) | 62.7

Copied from the listing for reference:
SMILES | cleaved PARP positive nuclei fraction [%]
O=C(Nc1cc(C(F)(F)F)cc(C(F)(F)F)c1)c1cc(Cl)ccc1O + COCC[n+]1c2c(n(Cc3cnccn3)c1C)C(=O)c1ccccc1C2=O [YM155] (first compound 0.016 µM, partner dose 0.0004 µM) | 168
O=c1[nH]nc(Sc2ncc([N+](=O)[O-])s2)n1-c1ccc2c(c1)OCCO2 + CCCCCCCCc1ccc(CCC(N)(CO)CO)cc1 [fingolimod] (first compound 0.2 µM, partner dose 2 µM) | 62.7
